Results as given in patent publication US8147880B2, “Polyacetylenic compounds for stimulating insulin gene exression, production and secretion” (Academia Sinica, priority 2007, dated 2012).
At least one compound was matched to its structure with a doubt left.

Tested on: RIN-m5F cells
Test: Cytopiloyne-induced insulin secretion after pre-treatment with channel modulators / calcium chelator
Assay type: cell-based, rat
Settings: pre-treatment 1 μM for 30 minutes, then cytopiloyne 5 μg/ml for 10 min
Description: RIN-[…] cells were pre-treated with vehicle, diazoxide (100 μM), EGTA (10 μM), or nimodipine (1 μM) for 30 minutes. They were then incubated with cytopiloyne at 5 μg/ml for 10 min. Insulin levels in the cell medium were determined using an insulin Elisa kit.

## COCCOC(=O)C1=C(C)NC(C)=C(C(=O)OC(C)C)C1c1cccc([N+](=O)[O-])c1 (stereo not shown) [nimodipine]
  effect on cytopiloyne-mediated insulin secretion: suppressed cytopiloyne-mediated insulin secretion
